Values from PubChem BioAssay AID1259308 (NCATS, 2017).

- Purpose: 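Knock-downs that increase output of a recombinant reporter protein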 (primary screen)
- System: human HEK293 embryonic kidney cells stably expressing firefly luciferase (HEK-CMV-Luc2-Hygro)
- Knock-down reagent: single siRNA against human genes, 0.8 pmol siRNA per well
- Time to read-out: 72 h
- Measured: 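Reporter luminescence and viable-cell signal on separate replicate plates, given as percent of non-targeting control and median/MAD z-scores, plus per-cell luciferase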
- Direction: total luciferase, z-score: higher = more reporter protein produced
- Call rule: 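An siRNA counts as active if its total luciferase robust z-score exceeds 3; genes with two or more such siRNAs out of three were retested with fresh siRNAs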
- Meaning of the calls: active = raised luciferase; inactive = no rise
The whole screen tested about 59,000 reagents; shown is a part drawn at random. About 1,510 of all reagents (2.6%) count as active. 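Calls use total luciferase alone and ignore viability, so some active siRNAs may act by altering cell number.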 Unmarked entries are inactive. Reagents against one gene are numbered here. Not all columns of the deposit are shown.

Gene	siRNA no.	total luciferase, z-score
PBX1 (PBX homeobox 1)	1	-0.31
PBX1 (PBX homeobox 1)	2	-1.61
PBX1 (PBX homeobox 1)	3	-0.817
INTS1 (integrator complex subunit 1)	1	5.86 (active)
INTS1 (integrator complex subunit 1)	2	2.27
INTS1 (integrator complex subunit 1)	3	3.31 (active)
RGN (regucalcin)	1	0.389
RGN (regucalcin)	2	-1.83
RGN (regucalcin)	3	-1.98
PGP (phosphoglycolate phosphatase)	1	-1.16
PGP (phosphoglycolate phosphatase)	2	0.877
PGP (phosphoglycolate phosphatase)	3	0.566
CCNT1 (cyclin T1)	1	1.55
CCNT1 (cyclin T1)	2	0.157
CCNT1 (cyclin T1)	3	-0.138
CRISP1 (cysteine rich secretory protein 1)	1	1.43
CRISP1 (cysteine rich secretory protein 1)	2	0.144
CRISP1 (cysteine rich secretory protein 1)	3	0.863
EFNA4 (ephrin A4)	1	0.0743
EFNA4 (ephrin A4)	2	-1.14
EFNA4 (ephrin A4)	3	0.0505
FADS3 (fatty acid desaturase 3)	1	-1.75
FADS3 (fatty acid desaturase 3)	2	-0.343
FADS3 (fatty acid desaturase 3)	3	1.1
FARSA (phenylalanyl-tRNA synthetase subunit alpha)	1	0.229
FARSA (phenylalanyl-tRNA synthetase subunit alpha)	2	0.206
FARSA (phenylalanyl-tRNA synthetase subunit alpha)	3	0.641
ANKZF1 (ankyrin repeat and zinc finger peptidyl tRNA hydrolase 1)	1	1.82
ANKZF1 (ankyrin repeat and zinc finger peptidyl tRNA hydrolase 1)	2	1.46
ANKZF1 (ankyrin repeat and zinc finger peptidyl tRNA hydrolase 1)	3	1.07
CD163L1 (CD163 molecule like 1)	1	-0.448
CD163L1 (CD163 molecule like 1)	2	-0.164
CD163L1 (CD163 molecule like 1)	3	-1.24
BMS1P21 (BMS1 pseudogene 21)	1	-1.81
BMS1P21 (BMS1 pseudogene 21)	2	-0.465
BMS1P21 (BMS1 pseudogene 21)	3	0.615
MMP3 (matrix metallopeptidase 3)	1	0.918
MMP3 (matrix metallopeptidase 3)	2	1.52
MMP3 (matrix metallopeptidase 3)	3	-1.06
TMA7 (translation machinery associated 7 homolog)	1	0.709
TMA7 (translation machinery associated 7 homolog)	2	-1.09
TMA7 (translation machinery associated 7 homolog)	3	-0.881
IGLL1 (immunoglobulin lambda like polypeptide 1)	1	0.502
IGLL1 (immunoglobulin lambda like polypeptide 1)	2	5.28 (active)
IGLL1 (immunoglobulin lambda like polypeptide 1)	3	0.487
TOX4 (TOX high mobility group box family member 4)	1	0.717
TOX4 (TOX high mobility group box family member 4)	2	0.337
TOX4 (TOX high mobility group box family member 4)	3	-0.776

Reformatted: results already given
| Gene | siRNA no. | total luciferase, z-score |
| --- | --- | --- |
| ANKZF1 (ankyrin repeat and zinc finger peptidyl tRNA hydrolase 1) | 2 | 1.46 |
| ANKZF1 (ankyrin repeat and zinc finger peptidyl tRNA hydrolase 1) | 3 | 1.07 |
| CD163L1 (CD163 molecule like 1) | 1 | -0.448 |
| CD163L1 (CD163 molecule like 1) | 2 | -0.164 |
| CD163L1 (CD163 molecule like 1) | 3 | -1.24 |
| BMS1P21 (BMS1 pseudogene 21) | 1 | -1.81 |
| BMS1P21 (BMS1 pseudogene 21) | 2 | -0.465 |
| BMS1P21 (BMS1 pseudogene 21) | 3 | 0.615 |

The listing continues.
Gene	siRNA no.	total luciferase, z-score
REEP4 (receptor accessory protein 4)	1	0.869
REEP4 (receptor accessory protein 4)	2	-0.169
REEP4 (receptor accessory protein 4)	3	0.434
PLEKHG5 (pleckstrin homology and RhoGEF domain containing G5)	1	-0.217
PLEKHG5 (pleckstrin homology and RhoGEF domain containing G5)	2	1.71
PLEKHG5 (pleckstrin homology and RhoGEF domain containing G5)	3	1.43
RET (ret proto-oncogene)	1	2.65
RET (ret proto-oncogene)	2	0.435
RET (ret proto-oncogene)	3	-2.67
HORMAD1 (HORMA domain containing 1)	1	1.81
HORMAD1 (HORMA domain containing 1)	2	1.38
HORMAD1 (HORMA domain containing 1)	3	-2.91
OR4K1 (olfactory receptor family 4 subfamily K member 1)	1	-0.646
OR4K1 (olfactory receptor family 4 subfamily K member 1)	2	0.713
OR4K1 (olfactory receptor family 4 subfamily K member 1)	3	-1.68
MAGI1	1	-0.0721
MAGI1	2	-0.447
MAGI1	3	-1.17
CRYBG3 (crystallin beta-gamma domain containing 3)	1	0.904
CRYBG3 (crystallin beta-gamma domain containing 3)	2	-0.366
CRYBG3 (crystallin beta-gamma domain containing 3)	3	-1.01
TCF20 (transcription factor 20)	1	-0.146
TCF20 (transcription factor 20)	2	-0.355
TCF20 (transcription factor 20)	3	0.613
PSMA4 (proteasome 20S subunit alpha 4)	1	-0.862
PSMA4 (proteasome 20S subunit alpha 4)	2	0.533
PSMA4 (proteasome 20S subunit alpha 4)	3	-0.364
